# Measurements reported in PubChem BioAssay AID1259425 (University of Nebraska Medical Center, 2018)
# Test: 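Seek colon cancer weak points whose silencing resembles KSR1 loss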 (primary screen)
# System: HCT116 human colon cancer cells
# Reagents: siRNA pool against human genes, 50 nM siRNA
# Measured: 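mRNA of six signature genes measured together by branched-DNA assay after 50 nM siRNA pool, blank removed, divided by geometric mean of two housekeeping genes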
# Direction: BNIP3L mRNA: higher = more BNIP3L transcript after knockdown; NDRG1 mRNA: higher = more NDRG1 transcript after knockdown; BNIP3 mRNA: higher = more BNIP3 transcript after knockdown; ALDOC mRNA: higher = more ALDOC transcript after knockdown; ACSL5 mRNA: higher = more ACSL5 transcript after knockdown
# This is an unselected part of about 14,000 reagents. A reagent listed more than once was tested more than once; the source does not tell the runs apart. Not given: the time to read-out.
The first 3 records, to show the layout:
gene symbol,PubChem SID,"BNIP3L mRNA, set 1","NDRG1 mRNA, set 1","BNIP3 mRNA, set 1","ALDOC mRNA, set 1","ACSL5 mRNA, set 1"
SGK2,SID364000001,0.0796,0.248,0.344,0.00615,0.246
C1orf116,SID364002663,0.249,0.458,0.387,0.0263,0.482
C1orf116,SID364002663,0.123,0.377,0.37,0.0282,0.146

The listing, from the start:
gene symbol,PubChem SID,"BNIP3L mRNA, set 1","NDRG1 mRNA, set 1","BNIP3 mRNA, set 1","ALDOC mRNA, set 1","ACSL5 mRNA, set 1"
SGK2,SID364000001,0.0796,0.248,0.344,0.00615,0.246
C1orf116,SID364002663,0.249,0.458,0.387,0.0263,0.482
C1orf116,SID364002663,0.123,0.377,0.37,0.0282,0.146
PBLD,SID364002355,0.0667,0.108,0.306,0.0157,0.148
FHIT,SID363993223,0.1,0.232,0.239,0.0102,0.204
ZBTB14,SID363994517,0.108,0.0749,0.231,0.00852,0.174
TAS2R3,SID364000279,0.166,0.177,0.496,0.0627,0.281
PTH2R,SID363995986,0.191,0.312,0.329,0.045,0.233
PKHD1,SID364004569,0.051,0.219,0.283,0.0122,0.201
POU3F1,SID363993859,0.12,0.209,0.357,0.0263,0.0757
COX7A2,SID363993078,0.147,0.391,0.332,0.0249,0.151
SETDB2,SID364003694,0.112,0.231,0.34,0.0192,0.151
IFNA5,SID363993373,0.077,0.0902,0.269,0.026,0.0761
AP4S1,SID363997806,0.157,0.658,0.306,0.0214,0.159
NIPAL3,SID364001704,0.0974,0.244,0.207,0.0411,0.258
HNRNPC,SID363995477,0.0979,0.512,0.285,0.0341,0.207
SIRPB1,SID363996911,0.163,0.299,0.413,0.0288,0.19
EEF1B2,SID363993171,0.0847,0.115,0.197,0.0162,0.187
TMEM33,SID364000802,0.0823,0.5,0.297,0.019,0.167
PCDHGB7,SID364001254,0.0795,0.283,0.31,0.0438,0.169
PM20D2,SID364005253,0.134,0.0999,0.206,0.0597,0.0922
IFT25,SID363999894,0.062,0.183,0.269,0.0356,0.183
SUPT20H,SID364000365,0.0712,0.177,0.206,0.0195,0.042
ASMTL-AS1,SID364003244,0.111,0.429,0.359,0.011,0.142
RNF41,SID363996664,0.159,0.137,0.253,0.0546,0.0965
QPCT,SID363998297,0.108,0.306,0.468,0.0181,0.108
HERPUD1,SID363999032,0.0995,0.176,0.186,0.0314,0.143
SLC46A2,SID364004298,0.139,0.0816,0.332,0.0176,0.106
FBXL21P,SID363998103,0.0463,0.0904,0.143,0.00883,0.105
SHMT1,SID363995173,0.112,0.288,0.388,0.0408,0.181
SMTN,SID363997685,0.103,0.156,0.426,0.0199,0.234
NUP214,SID363996021,0.264,0.212,0.313,0.0438,0.267
ZNHIT2,SID363998647,0.104,0.211,0.247,0.0229,0.13
RECK,SID364002016,0.0263,0.487,0.184,0.0325,0.151
ULK2,SID363999031,0.0519,0.103,0.194,0.0088,0.142
RAF1,SID363994036,0.148,0.0527,0.415,0.00153,0.0965
DCTN3,SID363997928,0.0545,0.151,0.236,0.00689,0.0912
PDXK,SID363994756,0.0938,0.282,0.234,0.00524,0.158
PDXK,SID364002232,0.171,0.221,0.208,0.0243,0.303
PDXK,SID364004270,0.243,0.136,0.339,0.0137,0.376
H4C8,SID363994626,0.146,0.0702,0.619,0.033,0.0464
FNBP1L,SID364000484,0.075,0.112,0.366,0.0211,0.244
FFAR1,SID363996220,0.0853,0.594,0.332,0.0222,0.25
BCS1L,SID363995317,0.16,0.293,0.203,0.00653,0.343
CLCA1,SID363992569,0.126,0.142,0.297,0.0337,0.179
GABRR2,SID363993253,0.0459,0.49,0.22,0.0123,0.172
SEMA4F,SID363995259,0.105,0.151,0.264,0.0194,0.0678
CAMK1D,SID364001661,0.0888,0.423,0.716,0.015,0.558
BNC1,SID363992938,0.125,0.0894,0.429,0.0302,0.2
PSMD7,SID363993968,0.143,0.248,0.411,0.0162,0.263
